Measurements reported in US20240240191.
For part of these data: A negative result means that nothing was seen under these conditions. For part of these data: A weaker result is weaker than the reference pair of the same experiment. For part of these data: For at least one entry, the source does not settle the construct or the ends of the probe. For part of these data: Whether high values mean tight binding is not given here for every scale.

How the values were obtained:
alpha-synuclein oligomer = alpha-synuclein oligomer (UniProt P37840); test: binding assay; conditions: CITED Tsukakoshi et al.; label: 32P; single-stranded DNA
amyloid-beta 40 oligomer = amyloid-beta 40 oligomer (UniProt P05067); test: binding assay; conditions: CITED Tsukakoshi et al.; label: 32P; single-stranded DNA
[1] = biological target: alpha-synuclein fibril, F-type conformer (fibrils) (UniProt P37840); test: FP filter; conditions: purified recombinant protein; protein details: F-type (cylindrical) fibril polymorph; label: 32P; single-stranded DNA
[2] = biological target: alpha-synuclein fibril, R-type conformer (ribbons) (UniProt P37840); test: FP filter; conditions: purified recombinant protein, protein details: R-type (ribbon) fibril polymorph
Tau 352 = test: binding assay; conditions: CITED Lisi et al. 2018; +/-6; label: 32P; single-stranded DNA
Tau 441 = test: binding assay; conditions: CITED Lisi et al. 2018; +/-3; label: 32P; single-stranded DNA
Tau 381 = test: binding assay; conditions: CITED Lisi et al. 2018; +/-6; label: 32P; single-stranded DNA
Tau 383 = test: binding assay; conditions: CITED Lisi et al. 2018; +/-4; label: 32P; single-stranded DNA
[3] = biological target: alpha-synuclein fibril, 65 conformer (UniProt P37840); test: FP filter; conditions: 2'-F on all pyrimidines, purified recombinant protein, protein details: fibril polymorph 65 (text also prints 61)
[4] = biological target: alpha-synuclein fibril, 91 conformer (UniProt P37840); test: FP filter; conditions: 2'-F on all pyrimidines, purified recombinant protein, protein details: fibril polymorph 91
alpha-synuclein monomer [5] = biological target: alpha-synuclein monomer (UniProt P37840); test: FP filter; conditions: 2'-F on all pyrimidines; purified recombinant protein; label: 32P SpG-LNA oligo hybridized to 3' G sequence
alpha-synuclein monomer [6] = biological target: alpha-synuclein monomer (UniProt P37840); test: binding assay; conditions: 2'-F on all pyrimidines; Sp6 exclusion column; purified recombinant protein; label: 32P SpG-LNA oligo hybridized to 3' G sequence; counted as no binding
[7] = label: 32P, single-stranded DNA
[8] = label: 32P oligo hybridized to 3' G sequence
[9] = 2'-F on all pyrimidines, label: 32P oligo hybridized to 3' G sequence
[10] = label: 32P SpG-LNA oligo hybridized to 3' G sequence
[11] = 2'-F on all pyrimidines, label: 32P SpG-LNA oligo hybridized to 3' G sequence

Sequence “ATACTGCCATTCATTTCATTTGCCTGTGGTGTTGGGGCGGGTGCGTTTAGATATCAGCATGTGTCA [T-SO508]” has a Kd (alpha-synuclein oligomer) of 68 nM and a Kd (amyloid-beta 40 oligomer) of 25 nM.

“ATAGTCCCATCATTCATTGTATGGTACGGCGCGGTGGCGGGTGCGTGGAGATATTAGCAAGTGTCA [M5-15]”: no binding [1]; no binding [2, 7].

“ATCGAGTGGACGAGTGCCTCCGGTACGAGCTGTCTGATGGGTTTGCGCGCAGGATCCA [F5R2]”: no binding [1]; no binding [2, 7].

“ATCGAGTGTGTACGGGGTCCGGTAGGGTGGCGAGGTCTTCCTGTCGTAGCAGGATCCA [F5R1]” showed a Kd [1] of 3.5 nM and a Kd [2, 7] of 32.4 nM.

“GCCTGTTGTGAGCCTCCTGTCGAACCTTTGGGGTGGCTTGACGAAGAAAGTAGTTGAGCGTTTATTCTTGTCTCCC [Tau 3146]” was tested, and the Kd (Tau 352) was 84 nM, the Kd (Tau 441) was 13 nM and the Kd (Tau 381) was 116 nM. It also gave a Kd (Tau 383) of 49 nM.

“GGGAGAGUAUCCGUUGAGGCUGACAACGCGUUUACCUCACACCACGUCAUCCGUUGCCAGAUCGGAAGAGCGUCGUGUAGGGCAUUGCCCCAGCGUGACUGCCUA [N3-G]”: binds more weakly [3, 8]; binds more weakly [4, 8]; binds more weakly [2, 9].

“GGGAGAGUAUCCGUUGAGGCUGAUCCGACCAUGCUUCAACUUAUACCUCGGGGACUGUAGAUCGGAAGAGCGUCGUGUAGGGCAUUGCCCCAGCGUGACUGCCUA [N124-G]”: no binding (alpha-synuclein monomer [5]); binds more weakly [3, 10]; binds more weakly [4, 10]. “GGGAGAGUAUCCGUUGAGGCUGAUCCGACCAUGCUUCAACUUAUACCUCGGGGACUGUAGAUCGGAAGAGCGUCGUGUAGGGCAUUGCCCCAGCGUGACUGCCUA [N124-G]”: no binding [2, 11].

“GGGAGAGUAUCCGUUGAGGCUGAUCGAUCCACGUCCGACAACGCGUUUACUCGCCAUCAGAUCGGAAGAGCGUCGUGUAGGGCAUUGCCCCAGCGUGACUGCCUA [N30-G]”: no binding (alpha-synuclein monomer [5]); binds more weakly [3, 10]; binds more weakly [4, 10]. For the same sequence, the binding result [2, 11] was “no binding” and the binding signal (% eluted in SDS fraction) (alpha-synuclein monomer [6]) was 1.1.

“GGGAGAGUAUCCGUUGGAGGCAUAGCAGCACACGACCAGUGUGCCCCACACCCAGUGGUGGUCUGUGGUGUGCAGAUCGGAAGAGCGUCGUGUAGGGCAUUGCCCCAGCGUGACUGCCUA [4F01-G]”: binds more weakly [3, 8]; binds more weakly [4, 8]; binds more weakly [2, 9].

“GGGAGAGUAUCCGUUGGAGGCAUCACGGACACCUACCCGACGGCAUGUCAGGACACAUGUUGUGCUCCGUGUGAGAUCGGAAGAGCGUCGUGUAGGGCAUUGCCCCAGCGUGACUGCCUA [F124-G (PF_124)]”: binds more weakly [3, 8]; binds more weakly [4, 8]; binds more weakly [2, 9].

“GGGAGAGUAUCCGUUGGAGGCAUCGCACAGUGUACACCUACACACAGCAUACCUGUUGGCAUCCCAGGUUGCCAGAUCGGAAGAGCGUCGUGUAGGGCAUUGCCCCAGCGUGACUGCCUA [P65-G (P65_10854)]”: binds more weakly [3, 8]; binds more weakly [4, 8]; binds more weakly [2, 9].

“GGGAGAGUAUCCGUUGGAGGCAUGCAACAGACGCACCGUACACACAUCUUGGCCGUUGGCUGCCCGACCAGCCAGAUCGGAAGAGCGUCGUGUAGGGCAUUGCCCCAGCGUGACUGCCUA [4F03-G]”: binds more weakly [3, 8]; binds more weakly [4, 8]; binds more weakly [2, 9].

“GGGAGAGUAUCCGUUGGAGGCAUGCCGCAGGCUACACCACAGCUUCCCCUUCAGCGUGUUGUGGAUACUCGGCAGAUCGGAAGAGCGUCGUGUAGGGCAUUGCCCCAGCGUGACUGCCUA [4F05-G]”: binds more weakly [3, 8]; binds more weakly [4, 8]; binds more weakly [2, 9].

“GGGAGAGUAUCCGUUGGAGGCAUGCUGGCAGCACGCACCGCUGACCGCUGGCUGCACUAUGCGUGUGGAGUGCAGAUCGGAAGAGCGUCGUGUAGGGCAUUGCCCCAGCGUGACUGCCUA [4F02-G]”: binds more weakly [3, 8]; binds more weakly [4, 8]; binds more weakly [2, 9].
